Source: PubChem BioAssay AID540336 (Broad Institute, 2011)
The whole screen tested about 330,000 compounds, of which about 520 (0.16%) were called active. The shares of active, inactive and inconclusive entries below differ from those in the screen.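 Rule for the calls: active = inhibition of at least 50% in every replicate; inconclusive = best replicate reaches 50% inhibition but some replicates fall short; inactive = the rest.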

Protein sequences, listed by entry. Tags and fused reporters are not part of them.
UniProt Q5AAJ8, whole entry, looked up: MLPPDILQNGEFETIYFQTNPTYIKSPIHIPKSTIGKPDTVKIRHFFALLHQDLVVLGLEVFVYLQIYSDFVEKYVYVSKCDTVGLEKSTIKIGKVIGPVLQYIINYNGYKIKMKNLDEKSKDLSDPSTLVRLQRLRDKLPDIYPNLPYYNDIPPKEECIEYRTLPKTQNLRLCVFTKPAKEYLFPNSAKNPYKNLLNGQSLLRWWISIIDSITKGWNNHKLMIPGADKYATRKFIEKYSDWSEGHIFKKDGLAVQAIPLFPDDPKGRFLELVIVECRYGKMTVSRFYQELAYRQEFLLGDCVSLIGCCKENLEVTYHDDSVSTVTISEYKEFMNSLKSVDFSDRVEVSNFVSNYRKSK

target: Histone acetyltransferase RTT109 (Candida albicans (strain SC5314 / ATCC MYA-2876)) (UniProt Q5AAJ8); assay: Rtt109-Vps75 histone acetyltransferase blockade – biochemical, ThioGlo CoA-SH fluorescence, plate reader, primary screen (AID 540336); conditions: purified Rtt109/Vps75, ThioGlo CoA-SH fluorescence, 4 h; at 34.9 µM; stronger effect = higher value

Q: `COc1cccc2c1Oc1ncccc1N(C(=O)CCC(=O)NCc1ccc(F)cc1)C2` was tested. Which inhibition did it give?
A: active: 51%

Q: With `CC(C(=O)NC1C=CS(=O)(=O)C1)N1C(=O)/C(=C\c2ccccc2)SC1=S` (centres undefined) as the compound, how does the inhibition read?
A: inconclusive: 51.6%

Q: How did the inhibition turn out when `CCCCOc1cc(=O)[nH]c(=O)[nH]1` was run?
A: inconclusive: 28.6%

Q: Which inhibition does the source give for `Cc1ccccc1OCCC(=O)N(Cc1ccccc1)c1c(N)n(Cc2ccccc2)c(=O)[nH]c1=O` here?
A: inconclusive: 71.4%

Q: With `COc1ccc(C2NC(=O)C(C#N)=C(S)N2c2cccc(C)c2)cc1OC` (centres undefined) as the compound, how does the inhibition read?
A: active: 73.6%

Q: Which inhibition does the source give for `COc1cc(C)c(Br)cc1S(=O)(=O)NCc1ccccc1` here?
A: inconclusive: 28.4%

Q: Which inhibition does the source give for `O=C1C(Cl)=C(Nc2ccc3cn[nH]c3c2)C(=O)c2ccccc21` here?
A: inactive: -2.08%

Q: How did the inhibition turn out when `Cc1nn(-c2ccccc2)c2nc(-c3ccco3)cc(C(=O)O)c12` was run?
A: inactive: 5.44%

Q: How did the inhibition turn out when `COc1ccc(NC(=O)CC2Sc3ncnn3C2=O)cc1` (centres undefined) was run?
A: inconclusive: 69.3%

Q: Which inhibition does the source give for `Cc1cc(C)cc(NCc2cc(=O)oc3cc(C)c(O)cc23)c1` here?
A: inconclusive: 27.9%

Q: Which inhibition does the source give for `C=CCOc1ccc(/C=C2\SC(=S)N(NS(=O)(=O)c3ccc(C)cc3)C2=O)cc1` here?
A: inconclusive: 29.4%

Q: Which inhibition does the source give for `CN(C)C(CNC(=O)c1ccc(C(=O)c2ccccc2)cc1)c1ccccc1` (centres undefined) here?
A: active: 54.2%

Q: Which inhibition does the source give for `O=C(NCc1ccccc1C(F)(F)F)C1CC(c2ccccc2C(F)(F)F)=NO1` (centres undefined) here?
A: inactive: -0.0965%

Q: Which inhibition does the source give for `C=CCC[C@@H](Cc1ccc(F)cc1)C(=O)OCCNC(=O)[C@@H](CC=C)CC(=O)N[C@@H](CO)Cc1ccccc1` here?
A: inactive: 1.61%

Q: How did the inhibition turn out when `COc1ccc(CN2C(=O)c3ccccc3C2C(=O)NCc2cccnc2)c(OC)c1` (centres undefined) was run?
A: inconclusive: 19.4%

Q: `O=C(CNC(=O)c1cccc(Br)c1)N/N=C/c1cccs1` was tested. Which inhibition did it give?
A: active: 58.7%

Q: How did the inhibition turn out when `COc1cc2cc(C(=O)Nc3ccc4c(c3)OCCO4)[nH]c2cc1OC` was run?
A: inconclusive: 22.1%

Q: How did the inhibition turn out when `Cc1ccc(Nc2nc(N)nc(CSc3nccn3C)n2)c(C)c1` was run?
A: inactive: -17.2%

Q: With `O=C(Oc1cccc2ccccc12)c1ccccc1` as the compound, how does the inhibition read?
A: inactive: -13.5%

Q: For `O=C(C[n+]1cc(-c2ccc(Cl)c(Cl)c2)n2c1CCC2)N1c2ccccc2Sc2ccccc21`, which inhibition is on record?
A: active: 57.1%

Q: How did the inhibition turn out when `CC(C)c1nnc(NC(=O)CCC(=O)NCc2cccs2)s1` was run?
A: active: 53.4%

Q: With `CCOc1cccc(C2/C(=C(\O)c3ccc4c(c3)OCCO4)C(=O)C(=O)N2Cc2ccncc2)c1` (centres undefined) as the compound, how does the inhibition read?
A: inconclusive: 27%

Q: `COCC(=O)O[C@]1(CCN(C)CCCc2nc3ccccc3[nH]2)CCc2cc(F)ccc2[C@@H]1C(C)C` was tested. Which inhibition did it give?
A: inconclusive: 29.3%

Q: `CC(=O)N(c1ccc2oc(=O)sc2c1)S(=O)(=O)c1ccc(C)cc1` was tested. Which inhibition did it give?
A: active: 134%

Q: How did the inhibition turn out when `COCCNC(=O)C(c1ccc(O)cc1)N(Cc1ccccc1)C(=O)CCC(=O)Nc1ccccn1` (centres undefined) was run?
A: active: 58.2%

Q: With `COc1cc(OC)c(NC(=O)CN(C)S(=O)(=O)c2ccc(-c3ccc(=O)[nH]n3)s2)cc1Cl` as the compound, how does the inhibition read?
A: active: 51.9%

Q: How did the inhibition turn out when `CC(C)N1CCC2(CC1)N=C(c1ccc3c(c1)OCO3)CC(c1cc(Cl)ccc1O)N2` (centres undefined) was run?
A: inconclusive: 43.1%

Q: For `CN(C(=O)c1ccc(N2CCCCC2)c([N+](=O)[O-])c1)C1(C)CCS(=O)(=O)C1` (centres undefined), which inhibition is on record?
A: active: 53%

Q: Which inhibition does the source give for `CC(=O)Nc1ccc(SCC(=O)N(C)C2CCS(=O)(=O)C2)cc1` (centres undefined) here?
A: inconclusive: 34.4%

Q: `CCCCNc1nc(Nc2ccc(C)c(Cl)c2)c2cnn(C)c2n1` was tested. Which inhibition did it give?
A: inconclusive: 31.6%

Q: How did the inhibition turn out when `Cc1nn(-c2ccccc2)c(C)c1/C=N/n1c(-c2ccccc2Br)n[nH]c1=S` was run?
A: inactive: -1.96%

Q: Which inhibition does the source give for `Cc1ccc2nc(Nc3ccccc3)c(/C=N/O)c(=O)n2c1` here?
A: inconclusive: 30.8%

Q: `COc1ccc(N2CCN(c3ncnc4scc(-c5ccc(C)cc5)c34)CC2)cc1` was tested. Which inhibition did it give?
A: active: 51.9%

Q: How did the inhibition turn out when `Cc1cc(Cl)ccc1OCc1n[nH]c(=S)n1C1CCCCC1` was run?
A: inconclusive: 44.1%

Q: `O=C(Nc1ccccc1N1CCCC1)c1cc(Cl)ccc1Cl` was tested. Which inhibition did it give?
A: inconclusive: 30.1%

Q: `Cc1cc(C)nc(-n2nc(C)cc2NC(=O)c2cccc(S(=O)(=O)N3CCOCC3)c2)n1` was tested. Which inhibition did it give?
A: inconclusive: 27.4%

Q: `CC(C)N1C(=O)c2ccccc2C1C(=O)NC1CCCCCC1` (centres undefined) was tested. Which inhibition did it give?
A: inconclusive: 29.2%

Q: Which inhibition does the source give for `O=C1OC(NC(=O)c2ccccc2)C(n2cc(CO)nn2)=C1Cl` (centres undefined) here?
A: active: 193%

Q: With `CCc1ccc(NC(=O)C2CCN(S(=O)(=O)c3ccc4c(c3)N(C(C)=O)CCO4)CC2)cc1` as the compound, how does the inhibition read?
A: inconclusive: 74.3%

Q: With `O=C(NC1CCCCC1)C(c1cccnc1)N(C(=O)c1csnn1)C1CCCC1` (centres undefined) as the compound, how does the inhibition read?
A: inconclusive: 30%

Q: With `C#CCOCCOCCOCCNc1nc(N2CCN(C(=O)CCCCCCCCCCNC(=O)[C@H](CCCCN)n3cc(C)nn3)CC2)nc(N2CCN(C(=O)CCCCCCCCCCNC(=O)[C@H](CO)n3cc(CCCSC)nn3)CC2)n1` as the compound, how does the inhibition read?
A: inconclusive: 29.8%

Q: With `CCN(CC)CCNS(=O)(=O)c1ccc(Cl)cc1` as the compound, how does the inhibition read?
A: inactive: -7.67%

Q: For `Cc1ccc(/C=C/C(=O)NCc2ccc(S(N)(=O)=O)cc2)o1`, which inhibition is on record?
A: active: 72.4%

Q: For `CN(C(=O)COC(=O)CNC(=O)c1ccc2ccccc2c1)c1c(N)n(Cc2ccccc2)c(=O)[nH]c1=O`, which inhibition is on record?
A: inconclusive: 31.2%

Q: With `O=C(Nc1ccc(C(F)(F)F)cc1)c1cc(-c2cccnc2)nc2ccc(Br)cc12` as the compound, how does the inhibition read?
A: inactive: 6.84%

Q: For `CC(=O)Oc1cc2cccc(OC(C)=O)c(=O)c2c(OC(C)=O)c1OC(C)=O`, which inhibition is on record?
A: inconclusive: 41.5%

Q: For `COc1ccc2cc(C(=O)OC(C)C)sc(=O)c2c1OC`, which inhibition is on record?
A: inactive: 10.6%

Q: With `CCOC(=O)CNc1nnc(SCC(=O)OCC)[nH]c1=O` as the compound, how does the inhibition read?
A: inconclusive: -49.2%

Q: `CCc1nnc(NC(=O)CSc2nnc(Cc3ccccc3)n2Cc2ccccc2)s1` was tested. Which inhibition did it give?
A: inconclusive: 41.9%

Q: How did the inhibition turn out when `CCOC(=O)N1CCN(S(=O)(=O)CCNC(=O)c2cccc(OC)c2)CC1` was run?
A: inconclusive: 39.4%

Q: `CCOC(=O)/C=c1\s/c(=C\c2c(OC)ccc3ccccc23)c(=O)n1CC(=O)NCC1CCCO1` (centres undefined) was tested. Which inhibition did it give?
A: inconclusive: 17%

Q: With `NC1=NC[C@H](Cc2ccccc2)N1CCc1cc(C(F)(F)F)cc(C(F)(F)F)c1` as the compound, how does the inhibition read?
A: inconclusive: 24.3%

Q: With `O=C(OCc1ccc(Br)cc1)c1ccncc1` as the compound, how does the inhibition read?
A: active: 57.5%

Q: With `CCOc1ccc(C2NC(=O)C(C#N)=C(S)N2c2ccc(OC)cc2)cc1OC` (centres undefined) as the compound, how does the inhibition read?
A: active: 144%

Q: `O=C(/C=C/c1ccccc1)c1c[nH]c2ccccc12` was tested. Which inhibition did it give?
A: inconclusive: 37.8%

Q: `C[N+](C)(C)CCOC(=O)C1(c2ccccc2)CCCC1` was tested. Which inhibition did it give?
A: inactive: 1.5%

Q: Which inhibition does the source give for `Cc1nn(C(C)(C)C)c(OC(=O)c2ccc3c(c2)OCO3)c1S(=O)(=O)c1ccccc1` here?
A: inconclusive: 27.7%

Q: `O=C(N[C@@H](Cc1ccccc1)c1nc2ccccc2[nH]1)c1cc([N+](=O)[O-])ccc1Cl` was tested. Which inhibition did it give?
A: inconclusive: 35.8%

Q: With `C=CCC1C=C(Cc2ccccc2)CC(CC=C)N1` (centres undefined) as the compound, how does the inhibition read?
A: inconclusive: 53.2%

Q: How did the inhibition turn out when `Cc1ccc(-n2nnnc2SCC(=O)Nc2nc(-c3ccc(F)cc3)cs2)cc1C` was run?
A: inactive: 0.485%

Q: For `CCCCNC(=O)c1ccc(CS(=O)(=O)c2ccc(C)cc2)o1`, which inhibition is on record?
A: inactive: 0.369%

Q: Which inhibition does the source give for `O=C1Nc2cc(C(=O)NCCCN3CCCC3)ccc2S/C1=C\c1ccccc1` here?
A: active: 72.6%

Q: Which inhibition does the source give for `COc1ccc2nc(C)cc(N/N=C/c3ccccc3)c2c1` here?
A: inconclusive: 28.7%

Q: With `COc1ccccc1C(=O)Nc1ccc(OCC(=O)N2CC(C)CC(C)C2)cc1` (centres undefined) as the compound, how does the inhibition read?
A: active: 53.5%

Q: Which inhibition does the source give for `CSc1ccc(NC(=O)/C=C/C(=O)O)cc1` here?
A: active: 63.6%

Q: With `CN(C)c1ccc(O)c2c1CC1CC3[C@@H](N(C)C)C(=O)C(C(N)=O)C(=O)[C@]3(O)C(=O)C1C2=O` (some centres undefined) as the compound, how does the inhibition read?
A: inactive: 10.9%

Q: How did the inhibition turn out when `O=C1Nc2ccccc2C(=O)C1(Cl)Cc1ccccc1` (centres undefined) was run?
A: inconclusive: 13.2%

Q: `CCc1cccc(C)c1NC(=O)COn1nnc2ccc(C(F)(F)F)cc21` was tested. Which inhibition did it give?
A: inconclusive: 18%

Q: `O=C(N/N=C/c1ccc2c(c1)OCO2)c1cc(-c2ccccc2)nc2ccccc12` was tested. Which inhibition did it give?
A: inconclusive: 25.6%

Q: Which inhibition does the source give for `CC(=NNC(=O)c1cc(C)oc1C)c1ccc(Br)s1` here?
A: inconclusive: 15.9%

Q: Which inhibition does the source give for `COc1ccc(NC(=O)CSc2nnc(C)c3ccccc23)cc1` here?
A: inconclusive: 44.6%

Q: With `O=[N+]([O-])c1cc(-c2csc(NC(CO)c3nc4ccccc4n3CCOCCO)n2)ccc1Cl` (centres undefined) as the compound, how does the inhibition read?
A: inactive: 1.69%

Q: How did the inhibition turn out when `COc1ccc(C(=O)NCC(=O)N/N=C/C(C)=C/c2ccccc2)cc1OC` was run?
A: inconclusive: 27.1%

Q: `Cc1ccc(S(=O)(=O)/N=S(/c2ccccc2)C(C)C)cc1` (centres undefined) was tested. Which inhibition did it give?
A: inconclusive: 37.4%

Q: `Cc1ccc(C(=O)NCC(=O)NC2CCCCCC2)cc1` was tested. Which inhibition did it give?
A: active: 61.5%

Q: How did the inhibition turn out when `COc1ccc(CCNC(=O)c2cc3sc(Cl)cc3n2C)cc1OC` was run?
A: inconclusive: 26.1%

Q: With `CCN(CC(=O)Nc1c(F)cccc1F)C(=O)c1cccc(S(=O)(=O)NCc2ccccc2)c1` as the compound, how does the inhibition read?
A: inconclusive: 32%

Q: Which inhibition does the source give for `Cc1c(C(=O)Nc2ccc(S(=O)(=O)N(C)C3CCN(C)CC3)cc2)oc2c(Cl)cccc12` here?
A: active: 66.2%

Q: With `CCC(/C=C1\Sc2ccc(OC)cc2N1CC)=C\c1sc2ccc(OC)cc2[n+]1CCCS(=O)(=O)[O-]` as the compound, how does the inhibition read?
A: inconclusive: 46.6%

Q: `CC1CC(C)CN(c2ncnc3c2cnn3Cc2ccc(Cl)cc2)C1` (centres undefined) was tested. Which inhibition did it give?
A: inactive: 6.31%

Q: How did the inhibition turn out when `CC[C@@H](C)[C@@H]1CN([C@@H](CN2CCC[C@H]2CN2C(N)=NC[C@@H]2Cc2ccccc2)C(C)C)C(=N)N1CCCC1CCCC1` was run?
A: inactive: 2.29%

Q: Which inhibition does the source give for `CCc1ccc(OCC(=O)NNC(=O)Cc2c(F)cccc2Cl)cc1` here?
A: inconclusive: 29.7%

Q: How did the inhibition turn out when `Cc1nn(C)c(Sc2ccccc2N)c1[N+](=O)[O-]` was run?
A: active: 153%

Q: For `COc1ccccc1NC(=O)CSc1nc2sc3c(c2c(=O)n1-c1ccccc1)CCN(C)C3`, which inhibition is on record?
A: active: 59.4%
